Measurements taken from the supplement of paper PMC10032668.
± gives the standard deviation of the averaged measurements. The list shows a part of the results. The list holds hits alone, and they repeat only in part.

Protein sequences, listed by entry. Tags and fused reporters are not part of them.
NDUFS6, O75380, UniProt O75380, whole entry: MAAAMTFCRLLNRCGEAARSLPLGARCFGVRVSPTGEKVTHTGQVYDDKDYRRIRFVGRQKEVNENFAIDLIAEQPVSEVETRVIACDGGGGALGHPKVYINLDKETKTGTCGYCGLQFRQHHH
NFRKB, Q6P4R8, UniProt Q6P4R8, whole entry: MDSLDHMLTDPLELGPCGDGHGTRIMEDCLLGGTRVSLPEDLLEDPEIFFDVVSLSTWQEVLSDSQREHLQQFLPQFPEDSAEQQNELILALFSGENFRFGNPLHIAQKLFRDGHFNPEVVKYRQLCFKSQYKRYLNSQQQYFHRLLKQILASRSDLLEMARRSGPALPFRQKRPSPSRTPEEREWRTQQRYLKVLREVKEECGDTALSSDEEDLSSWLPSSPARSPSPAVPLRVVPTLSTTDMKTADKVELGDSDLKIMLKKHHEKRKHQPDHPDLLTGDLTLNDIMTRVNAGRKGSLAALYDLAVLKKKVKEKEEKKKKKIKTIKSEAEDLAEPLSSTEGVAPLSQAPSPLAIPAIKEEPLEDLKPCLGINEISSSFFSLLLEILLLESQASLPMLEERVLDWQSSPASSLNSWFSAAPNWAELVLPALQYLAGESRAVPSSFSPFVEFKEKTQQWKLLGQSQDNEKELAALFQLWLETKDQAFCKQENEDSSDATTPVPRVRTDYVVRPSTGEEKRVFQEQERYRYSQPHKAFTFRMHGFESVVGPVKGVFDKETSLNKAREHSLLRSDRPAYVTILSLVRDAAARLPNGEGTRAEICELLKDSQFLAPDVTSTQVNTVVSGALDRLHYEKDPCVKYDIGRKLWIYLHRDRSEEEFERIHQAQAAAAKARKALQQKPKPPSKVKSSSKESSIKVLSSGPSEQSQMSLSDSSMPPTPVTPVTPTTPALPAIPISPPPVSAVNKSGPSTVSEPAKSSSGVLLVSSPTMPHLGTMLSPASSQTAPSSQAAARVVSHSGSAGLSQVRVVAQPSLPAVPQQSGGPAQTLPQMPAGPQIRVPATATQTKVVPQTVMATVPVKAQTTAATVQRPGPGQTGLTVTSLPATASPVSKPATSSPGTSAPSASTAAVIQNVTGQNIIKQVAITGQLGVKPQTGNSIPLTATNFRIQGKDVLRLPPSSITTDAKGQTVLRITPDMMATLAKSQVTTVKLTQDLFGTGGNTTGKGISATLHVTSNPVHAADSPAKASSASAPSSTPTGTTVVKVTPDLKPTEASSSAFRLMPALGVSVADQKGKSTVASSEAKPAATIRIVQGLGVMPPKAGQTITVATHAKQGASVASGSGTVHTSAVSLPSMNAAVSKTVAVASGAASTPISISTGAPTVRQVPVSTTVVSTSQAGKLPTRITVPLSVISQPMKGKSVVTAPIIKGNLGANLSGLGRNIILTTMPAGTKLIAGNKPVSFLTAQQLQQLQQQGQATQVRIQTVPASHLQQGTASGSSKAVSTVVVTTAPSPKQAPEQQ
NFYA, P23511, UniProt P23511, whole entry: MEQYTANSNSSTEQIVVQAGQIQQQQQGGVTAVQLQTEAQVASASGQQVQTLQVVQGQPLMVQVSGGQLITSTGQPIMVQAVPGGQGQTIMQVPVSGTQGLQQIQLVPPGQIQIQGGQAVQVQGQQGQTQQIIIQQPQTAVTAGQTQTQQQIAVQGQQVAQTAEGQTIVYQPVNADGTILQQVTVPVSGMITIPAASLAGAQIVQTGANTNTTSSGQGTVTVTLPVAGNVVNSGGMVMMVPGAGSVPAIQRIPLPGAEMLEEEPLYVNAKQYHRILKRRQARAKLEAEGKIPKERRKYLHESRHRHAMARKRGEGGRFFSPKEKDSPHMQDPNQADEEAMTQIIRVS
NUP153, P49790, UniProt P49790, whole entry: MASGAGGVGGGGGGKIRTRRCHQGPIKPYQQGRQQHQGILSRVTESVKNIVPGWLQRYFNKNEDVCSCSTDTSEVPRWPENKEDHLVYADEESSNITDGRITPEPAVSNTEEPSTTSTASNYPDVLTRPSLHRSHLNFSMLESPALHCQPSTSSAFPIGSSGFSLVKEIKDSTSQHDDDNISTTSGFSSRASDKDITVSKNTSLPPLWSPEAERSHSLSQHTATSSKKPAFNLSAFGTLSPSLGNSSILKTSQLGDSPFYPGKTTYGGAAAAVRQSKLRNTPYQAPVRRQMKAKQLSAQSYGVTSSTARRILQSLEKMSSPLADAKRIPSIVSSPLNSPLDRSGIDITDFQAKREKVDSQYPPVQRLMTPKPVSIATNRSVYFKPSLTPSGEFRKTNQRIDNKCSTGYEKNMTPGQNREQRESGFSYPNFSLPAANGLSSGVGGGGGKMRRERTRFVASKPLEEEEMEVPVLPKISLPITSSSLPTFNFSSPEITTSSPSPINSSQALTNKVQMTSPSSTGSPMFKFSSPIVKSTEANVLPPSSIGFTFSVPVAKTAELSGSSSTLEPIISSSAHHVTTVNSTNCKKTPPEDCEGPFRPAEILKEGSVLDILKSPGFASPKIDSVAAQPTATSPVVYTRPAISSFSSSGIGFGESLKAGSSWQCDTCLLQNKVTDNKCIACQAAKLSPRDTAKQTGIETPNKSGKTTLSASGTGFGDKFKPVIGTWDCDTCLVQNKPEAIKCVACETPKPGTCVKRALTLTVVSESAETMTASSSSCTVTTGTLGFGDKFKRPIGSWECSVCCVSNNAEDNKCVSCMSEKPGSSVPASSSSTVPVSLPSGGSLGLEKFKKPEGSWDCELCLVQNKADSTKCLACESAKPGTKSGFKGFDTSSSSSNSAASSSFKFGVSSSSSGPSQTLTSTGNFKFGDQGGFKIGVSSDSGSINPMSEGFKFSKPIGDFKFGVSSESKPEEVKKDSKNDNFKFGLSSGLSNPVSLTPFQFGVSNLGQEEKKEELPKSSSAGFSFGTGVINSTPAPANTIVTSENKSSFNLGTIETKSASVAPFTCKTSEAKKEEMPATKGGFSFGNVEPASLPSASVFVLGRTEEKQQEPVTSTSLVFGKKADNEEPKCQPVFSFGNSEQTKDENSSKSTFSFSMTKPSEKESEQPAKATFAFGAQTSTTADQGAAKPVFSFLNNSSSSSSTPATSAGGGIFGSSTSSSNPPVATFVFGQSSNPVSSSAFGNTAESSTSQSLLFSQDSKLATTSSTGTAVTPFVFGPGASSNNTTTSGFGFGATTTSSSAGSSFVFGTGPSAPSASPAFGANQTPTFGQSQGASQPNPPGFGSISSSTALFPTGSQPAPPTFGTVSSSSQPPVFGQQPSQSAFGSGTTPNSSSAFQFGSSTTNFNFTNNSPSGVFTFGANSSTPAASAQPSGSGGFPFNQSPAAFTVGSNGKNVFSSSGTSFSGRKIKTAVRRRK
PARK7, Q99497, UniProt Q99497, whole entry: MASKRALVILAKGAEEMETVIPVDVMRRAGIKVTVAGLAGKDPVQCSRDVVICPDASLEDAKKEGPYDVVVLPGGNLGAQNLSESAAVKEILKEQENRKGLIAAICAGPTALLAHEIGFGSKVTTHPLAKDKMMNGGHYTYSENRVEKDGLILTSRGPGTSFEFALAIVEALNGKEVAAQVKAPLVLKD
PCBP2, Q15366, UniProt Q15366, whole entry: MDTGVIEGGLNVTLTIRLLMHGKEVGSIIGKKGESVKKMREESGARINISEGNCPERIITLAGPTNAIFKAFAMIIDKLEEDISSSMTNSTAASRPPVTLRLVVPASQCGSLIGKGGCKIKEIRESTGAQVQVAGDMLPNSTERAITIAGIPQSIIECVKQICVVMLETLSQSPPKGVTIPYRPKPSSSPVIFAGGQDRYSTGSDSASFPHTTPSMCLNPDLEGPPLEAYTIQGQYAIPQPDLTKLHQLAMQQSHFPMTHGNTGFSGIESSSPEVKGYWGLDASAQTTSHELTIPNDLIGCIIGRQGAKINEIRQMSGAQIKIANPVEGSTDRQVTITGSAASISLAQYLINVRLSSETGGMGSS
RBBP5, Q15291, UniProt Q15291, whole entry: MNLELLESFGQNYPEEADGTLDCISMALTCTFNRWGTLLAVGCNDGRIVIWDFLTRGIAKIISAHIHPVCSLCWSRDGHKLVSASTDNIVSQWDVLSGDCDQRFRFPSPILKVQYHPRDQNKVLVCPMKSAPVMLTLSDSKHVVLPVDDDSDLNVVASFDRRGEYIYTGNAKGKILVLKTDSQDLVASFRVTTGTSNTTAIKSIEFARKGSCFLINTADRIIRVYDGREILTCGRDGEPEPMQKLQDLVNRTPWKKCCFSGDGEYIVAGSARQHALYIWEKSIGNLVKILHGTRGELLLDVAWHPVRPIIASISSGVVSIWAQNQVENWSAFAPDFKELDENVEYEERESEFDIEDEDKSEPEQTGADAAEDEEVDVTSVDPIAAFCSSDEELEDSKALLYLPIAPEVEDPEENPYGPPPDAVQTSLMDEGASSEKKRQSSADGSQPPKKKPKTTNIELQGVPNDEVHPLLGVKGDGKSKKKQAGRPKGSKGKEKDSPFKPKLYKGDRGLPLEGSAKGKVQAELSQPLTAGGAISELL
RRM2, P31350, UniProt P31350, whole entry: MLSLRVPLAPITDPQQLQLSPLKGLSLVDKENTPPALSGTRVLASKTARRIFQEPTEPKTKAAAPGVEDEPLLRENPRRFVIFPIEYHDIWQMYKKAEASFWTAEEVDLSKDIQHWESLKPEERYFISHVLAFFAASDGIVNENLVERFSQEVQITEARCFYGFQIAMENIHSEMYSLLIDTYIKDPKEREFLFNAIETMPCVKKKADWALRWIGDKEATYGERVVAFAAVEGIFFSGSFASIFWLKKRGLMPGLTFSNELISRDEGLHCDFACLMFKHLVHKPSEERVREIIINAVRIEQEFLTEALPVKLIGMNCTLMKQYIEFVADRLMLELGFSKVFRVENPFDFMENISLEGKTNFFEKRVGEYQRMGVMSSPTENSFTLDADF
SETD1A, O15047, UniProt O15047, whole entry: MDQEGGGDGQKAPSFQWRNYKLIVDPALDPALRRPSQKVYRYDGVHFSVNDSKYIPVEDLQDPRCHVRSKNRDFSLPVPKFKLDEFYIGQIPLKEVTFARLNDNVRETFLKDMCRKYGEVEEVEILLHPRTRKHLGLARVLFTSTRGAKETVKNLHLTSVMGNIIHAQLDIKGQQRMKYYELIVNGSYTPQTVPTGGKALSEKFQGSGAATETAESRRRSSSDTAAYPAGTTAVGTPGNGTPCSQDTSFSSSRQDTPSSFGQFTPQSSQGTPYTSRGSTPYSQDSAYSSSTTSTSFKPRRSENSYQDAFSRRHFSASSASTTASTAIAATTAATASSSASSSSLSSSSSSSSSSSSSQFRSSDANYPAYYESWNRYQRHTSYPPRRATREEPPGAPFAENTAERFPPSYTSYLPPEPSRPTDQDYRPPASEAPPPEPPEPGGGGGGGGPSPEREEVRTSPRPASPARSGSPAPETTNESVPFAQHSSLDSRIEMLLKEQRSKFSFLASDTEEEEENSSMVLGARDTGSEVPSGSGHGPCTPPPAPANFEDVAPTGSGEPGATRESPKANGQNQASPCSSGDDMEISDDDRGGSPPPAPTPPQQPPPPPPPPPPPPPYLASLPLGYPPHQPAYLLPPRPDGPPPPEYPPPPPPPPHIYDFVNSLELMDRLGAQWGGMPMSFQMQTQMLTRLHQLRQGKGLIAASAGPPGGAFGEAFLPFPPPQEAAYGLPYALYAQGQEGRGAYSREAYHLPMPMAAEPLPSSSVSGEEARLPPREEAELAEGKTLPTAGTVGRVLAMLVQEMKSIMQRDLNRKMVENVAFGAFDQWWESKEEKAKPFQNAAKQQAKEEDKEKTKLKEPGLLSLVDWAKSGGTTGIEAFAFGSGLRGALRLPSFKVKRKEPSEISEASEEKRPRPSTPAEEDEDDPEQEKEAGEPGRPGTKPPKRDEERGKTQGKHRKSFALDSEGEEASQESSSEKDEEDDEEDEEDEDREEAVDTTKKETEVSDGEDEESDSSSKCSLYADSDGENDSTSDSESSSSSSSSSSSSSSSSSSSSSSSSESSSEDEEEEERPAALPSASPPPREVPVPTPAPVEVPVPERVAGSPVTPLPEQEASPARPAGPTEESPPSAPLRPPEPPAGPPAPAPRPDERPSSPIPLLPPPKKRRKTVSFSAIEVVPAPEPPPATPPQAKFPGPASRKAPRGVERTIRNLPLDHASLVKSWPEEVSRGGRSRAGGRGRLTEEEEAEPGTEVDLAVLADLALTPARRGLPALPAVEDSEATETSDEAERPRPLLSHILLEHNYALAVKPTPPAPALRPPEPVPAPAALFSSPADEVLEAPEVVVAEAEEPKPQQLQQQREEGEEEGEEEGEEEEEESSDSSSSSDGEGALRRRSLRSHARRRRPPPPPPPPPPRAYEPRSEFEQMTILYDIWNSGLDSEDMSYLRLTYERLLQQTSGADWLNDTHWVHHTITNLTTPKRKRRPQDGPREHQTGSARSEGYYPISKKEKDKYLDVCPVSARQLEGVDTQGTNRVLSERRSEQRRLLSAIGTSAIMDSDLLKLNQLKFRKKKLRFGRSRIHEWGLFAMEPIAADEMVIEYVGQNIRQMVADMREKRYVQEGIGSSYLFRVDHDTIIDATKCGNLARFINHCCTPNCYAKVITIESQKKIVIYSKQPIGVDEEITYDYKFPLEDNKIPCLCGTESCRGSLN

What was measured:
Assay in all cases: PRISMA enrichment of interactor (LFQ) in peptide spot vs all other peptide spots (log2 fold change); higher = stronger / more specific binding of the interactor to the peptide
LEO1, Q8WVC0 = target: LEO1, Q8WVC0
Experimental: (§1)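 PRISMA: 221 full-length sORF-encoded peptides (3-15 aa), plus SOS1/GLUT1 control peptides, were spot-synthesized on cellulose membranes in triplicate. Membranes were incubated with HEK293T lysate, and bound proteins were identified by LC-MS/MS with LFQ. Enrichment is the log2 fold change versus all other peptide spots; only significant interactors are listed (cutoff c=6, x0=2.8).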

LIN54, Q6MZP7 = target: LIN54, Q6MZP7
Experimental: as §1

LSM14A, Q8ND56 = target: LSM14A, Q8ND56
Experimental: as §1

MAP2K7, O14733 = target: MAP2K7, O14733
Experimental: as §1

MBNL1, Q9NR56 = target: MBNL1, Q9NR56
Experimental: as §1

MCRIP2, Q9BUT9 = target: MCRIP2, Q9BUT9
Experimental: as §1

MPP1, Q00013 = target: MPP1, Q00013
Experimental: as §1

MTHFD1L, Q6UB35 = target: MTHFD1L, Q6UB35
Experimental: as §1

NAMPT, P43490 = target: NAMPT, P43490
Experimental: as §1

NDUFS6, O75380 = target: NDUFS6, O75380
Experimental: as §1

NFRKB, Q6P4R8 = target: NFRKB, Q6P4R8
Experimental: as §1

NFYA, P23511 = target: NFYA, P23511
Experimental: as §1

NOB1, Q9ULX3 = target: NOB1, Q9ULX3
Experimental: as §1

[1] = substrate: NOSIP, Q9Y314
Experimental: as §1

NTPCR, Q9BSD7 = target: NTPCR, Q9BSD7
Experimental: as §1

NUFIP2, Q7Z417 = target: NUFIP2, Q7Z417
Experimental: as §1

NUP153, P49790 = target: NUP153, P49790
Experimental: as §1

NUP50, Q9UKX7 = target: NUP50, Q9UKX7
Experimental: as §1

NUSAP1, Q9BXS6 = target: NUSAP1, Q9BXS6
Experimental: as §1

NXF1, Q9UBU9 = target: NXF1, Q9UBU9
Experimental: as §1

OGT, O15294 = target: OGT, O15294
Experimental: as §1

PARK7, Q99497 = target: PARK7, Q99497
Experimental: as §1

PBDC1, Q9BVG4 = target: PBDC1, Q9BVG4
Experimental: as §1

PCBP2, Q15366 = target: PCBP2, Q15366
Experimental: as §1

PCLAF, Q15004 = target: PCLAF, Q15004
Experimental: as §1

[2] = substrate: PCNP, Q8WW12
Experimental: as §1

PDLIM1, O00151 = target: PDLIM1, O00151
Experimental: as §1

PICALM, Q13492 = target: PICALM, Q13492
Experimental: as §1

PINX1, Q96BK5 = target: PINX1, Q96BK5
Experimental: as §1

POGZ, Q7Z3K3 = target: POGZ, Q7Z3K3
Experimental: as §1

POLDIP3, Q9BY77 = target: POLDIP3, Q9BY77
Experimental: as §1

POM121C, A8CG34 = target: POM121C, A8CG34
Experimental: as §1

PPP1R10, Q96QC0 = target: PPP1R10, Q96QC0
Experimental: as §1

PRRC2B, Q5JSZ5 = target: PRRC2B, Q5JSZ5
Experimental: as §1

PRRC2C, Q9Y520 = target: PRRC2C, Q9Y520
Experimental: as §1

PSRC1, Q6PGN9 = target: PSRC1, Q6PGN9
Experimental: as §1

PUM1, Q14671 = target: PUM1, Q14671
Experimental: as §1

QKI, Q96PU8 = target: QKI, Q96PU8
Experimental: as §1

QRICH1, Q2TAL8 = target: QRICH1, Q2TAL8
Experimental: as §1

RACGAP1, Q9H0H5 = target: RACGAP1, Q9H0H5
Experimental: as §1

RBBP5, Q15291 = target: RBBP5, Q15291
Experimental: as §1

RBIS, Q8N0T1 = target: RBIS, Q8N0T1
Experimental: as §1

RBM14, Q96PK6 = target: RBM14, Q96PK6
Experimental: as §1

RBM26, Q5T8P6 = target: RBM26, Q5T8P6
Experimental: as §1

RBM27, Q9P2N5 = target: RBM27, Q9P2N5
Experimental: as §1

RBM33, Q96EV2 = target: RBM33, Q96EV2
Experimental: as §1

RBMS1, P29558 = target: RBMS1, P29558
Experimental: as §1

RRM2, P31350 = target: RRM2, P31350
Experimental: as §1

SAP130, Q9H0E3 = target: SAP130, Q9H0E3
Experimental: as §1

SBDS, Q9Y3A5 = target: SBDS, Q9Y3A5
Experimental: as §1

SCPEP1, Q9HB40 = target: SCPEP1, Q9HB40
Experimental: as §1

SDF2L1, Q9HCN8 = target: SDF2L1, Q9HCN8
Experimental: as §1

SEPTIN11, Q9NVA2 = target: SEPTIN11, Q9NVA2
Experimental: as §1

SEPTIN2, Q15019 = target: SEPTIN2, Q15019
Experimental: as §1

SEPTIN7, Q16181 = target: SEPTIN7, Q16181
Experimental: as §1

SEPTIN8, Q92599 = target: SEPTIN8, Q92599
Experimental: as §1

SEPTIN9, Q9UHD8 = target: SEPTIN9, Q9UHD8
Experimental: as §1

SETD1A, O15047 = target: SETD1A, O15047
Experimental: as §1

SIN3A, Q96ST3 = target: SIN3A, Q96ST3
Experimental: as §1

SMARCA5, O60264 = target: SMARCA5, O60264
Experimental: as §1

Question: What does the source list for MAASSEIIIQVFVS [VPS8]?
Answer: PRISMA enrichment of interactor (log2) (LEO1, Q8WVC0): 5.43; PRISMA enrichment of interactor (log2) (LIN54, Q6MZP7): 6.37; PRISMA enrichment of interactor (log2) (LSM14A, Q8ND56): 4.68; PRISMA enrichment of interactor (log2) (MAP2K7, O14733): 4.19; PRISMA enrichment of interactor (log2) (MBNL1, Q9NR56): 6.03; PRISMA enrichment of interactor (log2) (MCRIP2, Q9BUT9): 3.7; PRISMA enrichment of interactor (log2) (MPP1, Q00013): 4.13; PRISMA enrichment of interactor (log2) (MTHFD1L, Q6UB35): 4.63; PRISMA enrichment of interactor (log2) (NAMPT, P43490): 4.87; PRISMA enrichment of interactor (log2) (NDUFS6, O75380): 5.21; PRISMA enrichment of interactor (log2) (NFRKB, Q6P4R8): 8.15; PRISMA enrichment of interactor (log2) (NFYA, P23511): 4.71; PRISMA enrichment of interactor (log2) (NOB1, Q9ULX3): 5.99; PRISMA enrichment of interactor (log2) [1]: 4.81; PRISMA enrichment of interactor (log2) (NTPCR, Q9BSD7): 5.64; PRISMA enrichment of interactor (log2) (NUFIP2, Q7Z417): 5.91; PRISMA enrichment of interactor (log2) (NUP153, P49790): 9.38; PRISMA enrichment of interactor (log2) (NUP50, Q9UKX7): 4.36; PRISMA enrichment of interactor (log2) (NUSAP1, Q9BXS6): 5.35; PRISMA enrichment of interactor (log2) (NXF1, Q9UBU9): 6.47; PRISMA enrichment of interactor (log2) (OGT, O15294): 11; PRISMA enrichment of interactor (log2) (PARK7, Q99497): 4.98; PRISMA enrichment of interactor (log2) (PBDC1, Q9BVG4): 3.94; PRISMA enrichment of interactor (log2) (PCBP2, Q15366): 4.77 ± 1.1; PRISMA enrichment of interactor (log2) (PCLAF, Q15004): 4.23; PRISMA enrichment of interactor (log2) [2]: 6.04; PRISMA enrichment of interactor (log2) (PDLIM1, O00151): 4.35; PRISMA enrichment of interactor (log2) (PICALM, Q13492): 7.65; PRISMA enrichment of interactor (log2) (PINX1, Q96BK5): 6.8; PRISMA enrichment of interactor (log2) (POGZ, Q7Z3K3): 6.1; PRISMA enrichment of interactor (log2) (POLDIP3, Q9BY77): 7.57; PRISMA enrichment of interactor (log2) (POM121C, A8CG34): 4.65; PRISMA enrichment of interactor (log2) (PPP1R10, Q96QC0): 8.16; PRISMA enrichment of interactor (log2) (PRRC2B, Q5JSZ5): 6.82; PRISMA enrichment of interactor (log2) (PRRC2C, Q9Y520): 6.81; PRISMA enrichment of interactor (log2) (PSRC1, Q6PGN9): 4.9; PRISMA enrichment of interactor (log2) (PUM1, Q14671): 4.7; PRISMA enrichment of interactor (log2) (QKI, Q96PU8): 4.33; PRISMA enrichment of interactor (log2) (QRICH1, Q2TAL8): 8.21; PRISMA enrichment of interactor (log2) (RACGAP1, Q9H0H5): 6.26; PRISMA enrichment of interactor (log2) (RBBP5, Q15291): 5.29; PRISMA enrichment of interactor (log2) (RBIS, Q8N0T1): 4.82; PRISMA enrichment of interactor (log2) (RBM14, Q96PK6): 6.51; PRISMA enrichment of interactor (log2) (RBM26, Q5T8P6): 4.25; PRISMA enrichment of interactor (log2) (RBM27, Q9P2N5): 6.31; PRISMA enrichment of interactor (log2) (RBM33, Q96EV2): 6.75; PRISMA enrichment of interactor (log2) (RBMS1, P29558): 4.51; PRISMA enrichment of interactor (log2) (RRM2, P31350): 4.05; PRISMA enrichment of interactor (log2) (SAP130, Q9H0E3): 3.73; PRISMA enrichment of interactor (log2) (SBDS, Q9Y3A5): 4.68; PRISMA enrichment of interactor (log2) (SCPEP1, Q9HB40): 5.31; PRISMA enrichment of interactor (log2) (SDF2L1, Q9HCN8): 6.57; PRISMA enrichment of interactor (log2) (SEPTIN11, Q9NVA2): 7.93; PRISMA enrichment of interactor (log2) (SEPTIN2, Q15019): 7.39; PRISMA enrichment of interactor (log2) (SEPTIN7, Q16181): 7.25; PRISMA enrichment of interactor (log2) (SEPTIN8, Q92599): 5.73; PRISMA enrichment of interactor (log2) (SEPTIN9, Q9UHD8): 9.4; PRISMA enrichment of interactor (log2) (SETD1A, O15047): 7.5; PRISMA enrichment of interactor (log2) (SIN3A, Q96ST3): 7.08; PRISMA enrichment of interactor (log2) (SMARCA5, O60264): 4.65
